The target in assay [1] is endogenous CD40 on primary B cells (and monocytes) (human (endogenous in primary B cells and monocytes)) (UniProt P25942). Nature of the assay: scanning fluorescence correlation spectroscopy with brightness-transit statistics (sFCS BTS); CD40 on primary B cells followed through AF647-labelled anti-CD40 Fab-His tethered to a supported lipid bilayer; brightness compared with the plain bilayer; 37 °C.

The chains behind the UniProt entries cited, without tags or fusion partners. Residues count along the entry.
UniProt P25942, residues 21-277: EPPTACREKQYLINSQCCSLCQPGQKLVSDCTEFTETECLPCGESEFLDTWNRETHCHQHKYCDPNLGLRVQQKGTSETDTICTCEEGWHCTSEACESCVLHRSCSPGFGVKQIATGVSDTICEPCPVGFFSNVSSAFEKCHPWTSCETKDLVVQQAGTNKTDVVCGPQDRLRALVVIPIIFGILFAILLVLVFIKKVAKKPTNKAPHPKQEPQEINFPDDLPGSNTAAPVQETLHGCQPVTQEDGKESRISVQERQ

The target is the same in assay [2]. The assay is described as follows: scanning fluorescence correlation spectroscopy with brightness-transit statistics (sFCS BTS); CD40 on primary monocytes followed through AF647-labelled anti-CD40 Fab-His tethered to a supported lipid bilayer; 37 °C.

These are yes or no findings as the source states them, for the method shown.

Regarding “endogenous CD40 on primary B cells (and monocytes) (from UniProt P25942 21-277) (receptor)”, the binding result in assay [1] and in assay [2] was “no binding” each time.
